From ChEMBL document CHEMBL3988442, “University of Dundee, Small-Polar-MMV Screening Library” (2021).

Each number is a percent effect as filed.
The controls that fix the scale are not given in the record; negative values are as filed.
This is an unselected part of the compounds tested.
Two or more numbers in one place are separate tests of the same structure; such repeats can differ widely.

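Viability assay of Plasmodium falciparum sporozoites; the read-out is not stated. The concentration is filed as 10 mM, unlikely as a test dose, so the dose is not known. Direction is inferred from retests: higher values go with lower viability. Strong results were mostly tested again. About 34,000 compounds were tested under these conditions; 0.84% (about 280) showed 50% or more at least once.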

structure | effect
O=C(Cc1ccccc1F)N1CCC[C@@H]1Cn1c(=O)oc2ccccc21 | 8.803
O=C(O)C(F)(F)F.O=C(O)C(F)(F)F.[H][C@@]12CNCC[C@]1([H])OC[C@H](C(=O)Nc1cccnc1)C2 | -1.855
Cc1csc(N2CCCN(c3cc(C)nc(C)c3C#N)CC2)n1 | -5.867
COc1cccc(CNC(=O)c2cccnc2SC(C)C)c1 | 17.86
NCC1(c2cccc(C(F)(F)F)c2)CCC1 | -19.29
Cc1cscc1-c1nc(C2CCOC2)no1 (centres undefined) | -19.82
O=C(CCCOc1ccccc1F)NCCCC(=O)Nc1cn[nH]c1 | -22.55
CCCc1cc(CNC2CCN(c3nc4ccccc4s3)CC2)on1 | 84.7 & 90.12
CC[C@@]1(O)CCN(C(=O)c2ccc(-c3cccc(F)c3)cc2)C[C@H]1O | -11.65
O=C(O)C(F)(F)F.[H][C@@]12COC[C@@H](C(=O)N3CCCCO3)[C@]1([H])CN(Cc1cc(C)c(C)o1)C2 | 6.787 & -46.6 & -39.77
COCC(=O)N1CCC(=O)N(C2CCCC2)Cc2ccccc21 | 10.35
O=C(Nc1ccnc(OC2CCOC2)c1)c1cc(F)ccc1F (centres undefined) | 2.688
Cc1noc(C(C)N2CCN(Cc3nc(C)c(C)o3)CC2)n1 (centres undefined) | 2.024
Cc1ccc(Br)cc1S(=O)(=O)NCCc1nnc[nH]1 | -1.716
CO[C@H]1CCN(C(=O)Cc2ccccn2)[C@H]1Cc1ccncc1 | -1.499
[H][C@@]12CC[C@H](Oc3cccc(F)c3)[C@]1([H])CN(C(=O)COCCOC)C2 | 5.462
O=C1CCC2(CCCN(Cc3nnc(C4CC4)o3)C2)CN1CCO (centres undefined) | -20.17
Cc1cc(S(=O)(=O)N2CCCc3cc(Cl)ccc32)sc1C(=O)O | 4.167
COCC(=O)N1CCC(c2cc(-c3ccc(N)nc3)cc(C)n2)CC1 | 6.431
CC(C)N1CCC(N2CCN(C3CCC3)CC2CCO)CC1 (centres undefined) | -13.21
CC(=O)N1CCC(C)(c2cc[nH]n2)CC1 | 9.928
Cc1c[nH]c(CN(C)C(=O)C2CC(=O)N(Cc3ccncc3)C2)n1 (centres undefined) | 5.306
CNC(=O)CN1CCCC12CCN(C(=O)c1ccsc1)CC2.O=C(O)C(F)(F)F | 10.74
Cc1nc(-c2ccoc2)n(CC(=O)NCC(C)C)c1C | -6.124
Cc1ncccc1NC(=O)C1=NOC2(CCN(Cc3nccs3)C2)C1 (centres undefined) | -1.902
Cc1ccccc1CN(C)C(=O)CN1CCCC(Cn2cncn2)C1 (centres undefined) | 15.58
Cc1ncsc1CNC(=O)N(CCCO)C1CCc2ccccc21 (centres undefined) | 14.45
COC(=O)C1CCN(C(=O)NCC(C)Cc2cccs2)CC1 (centres undefined) | -19.53
O=C(O)C(F)(F)F.[H][C@@]12CCN(Cc3ccco3)C[C@]1([H])[C@@H](CNC(=O)c1ccsc1)OC2 | -8.138
CC(C)CC(=O)N1CC(=O)N(Cc2ccco2)CC(O)C1 (centres undefined) | -30.79
CC(=O)NCCCNCc1ccc(Cl)c2cccnc12 | 5.148
Cc1nc(C2CCCN2CC(=O)NCCc2ccsc2)no1 (centres undefined) | 1.42
c1cc2cc[nH]c2c(CC2CN(Cc3cncs3)C2)n1 | 6.07
Cn1ncc2c(=O)[nH]c(CN3CCCC3CC(C)(C)C)nc21 (centres undefined) | 7.079
CC(C)N1CCCC(Cc2nccnc2Cl)CC1 (centres undefined) | 1.577
CCN(Cc1cccc2c1OCO2)C(=O)Nc1cn[nH]c1 | -1.35
CCCc1nc(NCCCn2cccn2)c2c(n1)c(C)nn2CC | -12.54 & -15.66
NC(=O)CN1C[C@@H](c2ccccc2F)[C@@]2(CCCCC(=O)N2)C1 | 4.171
Cc1nc2ccccc2n(Cc2nnnn2C2CC2)c1=O | -11.25 & -22.91
CC(C)N1CC(C(=O)NCc2ccnc(-n3cccn3)c2)CC1=O (centres undefined) | 7.568
O=C(O)C(F)(F)F.O=C([C@H]1CCCO1)N1CCN(CCn2cccn2)c2ncccc2C1 | -55.41 & -55.56 & 11.75
O=C(O)C(F)(F)F.O=C(O)C(F)(F)F.[H][C@@]12CCN(c3nnc(C)s3)[C@]1([H])CC[C@@H](C(=O)NCc1ccccn1)O2 | -10.46
CC(C(=O)N1CCCN(c2ncccc2C#N)CC1)n1cncn1 (centres undefined) | -2.106
COc1cc(Cl)c(C)cc1NC(=O)CNc1ccn(CC(N)=O)n1 | 1.6
Cc1cc(C)c(C(=O)NCCNc2ncnc3ccccc23)c(=O)[nH]1 | -14.54
CC(C)NC(=O)C1Cc2nc(-c3ccsc3)sc2N1CC1CC1 (centres undefined) | 40.3 & 21.21 & -3.076
CNC(=O)CCc1cc(C2CCCCN2C)nc(C)n1 (centres undefined) | -0.2536
CC(NCc1cnc(C2CCC2)s1)c1ccccc1-n1cccn1 (centres undefined) | -21.11
Cc1ccc(C(=O)N(C)Cc2ccc3c(c2)OCCO3)c(=O)[nH]1 | 7.382
CCCc1nnc(NC(=O)Cc2c(C)nc(C)[nH]c2=O)s1 | -4.636
O=C(O)C(F)(F)F.O=C(O)C(F)(F)F.O=C(O)C(F)(F)F.[H][C@@]12CO[C@@H](CNc3ncccn3)[C@]1([H])CCN(Cc1cccc(C)n1)C2 | 12.65
C=C(C)COc1cccc(CNC(CC)c2ccnn2C)c1 (centres undefined) | -2.018
COc1ccccc1C1CCCN1CC(=O)N1CCC(C(N)=O)CC1 (centres undefined) | 10.69
O=C1CCc2cc(-c3csc(CCN4CCOC4=O)n3)c(F)cc2N1 | 1.949
CCOc1cc(C)nc(N2CCN(C(=O)CN(C)C3CC3)CC2)n1 | 8.163
Cc1csc(N2CCN(CC(=O)Nc3nncs3)CC2C)n1 (centres undefined) | 6.099
Cc1cccc(OCCN2CCCC(c3cc(C(N)=O)[nH]n3)C2)c1 (centres undefined) | -2.892
CC(NC(=O)NCC(C)(C)C(N)=O)c1nc(-c2ccccc2)cs1 (centres undefined) | -5.085
CN1CCN(C2CCN(CCOc3ccc(Cl)cc3)CC2)C1=O | -2.733
COc1c(C2CCCN2CC(=O)Nc2cc(C)nn2C)c(C)nn1C (centres undefined) | 7.074
NC(=O)N1CCCN(C(=O)Nc2cc(-n3cccc3)ccc2F)CC1 | -4.343
CN(C)c1cc2c(nn1)CCN(C(=O)c1ccc(-n3cccn3)nc1)C2 | -1.432
CNc1ccc(CC2CCCN(C(=O)c3cnco3)C2)nn1 (centres undefined) | -9.874
O=C(O)C1(O)CCN(c2ccc3cccc(Cl)c3n2)CC1 | -6.446
O=C(NCc1ccncc1)c1ccc(Cl)cc1F | 3.088
[H][C@@]12CCN(c3cc(OC)ncn3)CC[C@@]1([H])N(CC1CC1)CCO2 | 15.59
N#Cc1ccccc1N1CCN(C(=O)NCCN2CCOCC2)CC1 | -10.47
Cc1nc(CC(=O)N2CCN(c3ccc(N(C)C)cc3)CC2)cs1 | 14.16
CN1CCN(C(=O)c2cc(C#N)cs2)c2ccccc2C1 | 0
Cc1cnn(CC2CN(CC(=O)Nc3sccc3C#N)CCO2)c1 (centres undefined) | -1.319
Cc1cnn(CC2CN(CC(=O)N3CCc4ccccc43)CCO2)c1 (centres undefined) | -16.67
Cc1ncsc1CCC(=O)NCc1csc(N2CCCC2)n1 | -5.586
O=C(N1CCCC1)N1CCc2onc(COc3cccnc3)c2C1.O=C(O)C(F)(F)F | -5.756
Cc1ccc(CNCC2Cn3nncc3CO2)s1 (centres undefined) | 11.03
Cc1ccccc1C(=O)N1CCOC(c2ncc(CN(C)C)[nH]2)C1 (centres undefined) | 7.175
CC(=O)N(Cc1noc(C2CC2)n1)C1CCN(Cc2cc(C)on2)C1 (centres undefined) | -6.388

Some entries from above, unchanged:

Cc1ccc(Br)cc1S(=O)(=O)NCCc1nnc[nH]1 read -1.716%.
Cc1cscc1-c1nc(C2CCOC2)no1 (centres undefined) read -19.82%.
NCC1(c2cccc(C(F)(F)F)c2)CCC1 read -19.29%.
Cc1ccccc1C(=O)N1CCOC(c2ncc(CN(C)C)[nH]2)C1 (centres undefined) read 7.175%.
O=C(CCCOc1ccccc1F)NCCCC(=O)Nc1cn[nH]c1 read -22.55%.